Some of the results follow.
What was measured:
Experiment in all cases: log2 fold change, soluble protein after heating vs DMSO (PISA); higher = thermal stabilisation; K562 lysate, 10 uM; active = over 0.2 and 3.5 SD of the protein, either way, in both replicates (recomputed)
erlotinib = compound: C#Cc1cccc(Nc2ncnc3cc(OCCOC)c(OCCOC)cc23)c1 [erlotinib]
Procedure, shortened: (§1)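 Dounce homogenisation of K562 pellets in PBS pH 7.4 with 1 mM MgCl2 produced a crude extract, used at 1 mg/mL protein. Exposure to 10 μM compound lasted 30 min, and aliquots were then heated for 3 min across 48°C-58°C, pooled and brought to 0.5% NP-40 at 4°C. The supernatant after 21,000xg for 90 min was quantified by TMTpro 16plex LC-MS/MS with channel sums equalised. Duplicate values are given as log-two fold change in thermal stability relative to solvent controls.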

Sequences of proteins named here, by UniProt entry; tags and fusion partners are left off. A change or cut given only in a name is not applied to a line headed by its entry.
UniProt Q9HAU0: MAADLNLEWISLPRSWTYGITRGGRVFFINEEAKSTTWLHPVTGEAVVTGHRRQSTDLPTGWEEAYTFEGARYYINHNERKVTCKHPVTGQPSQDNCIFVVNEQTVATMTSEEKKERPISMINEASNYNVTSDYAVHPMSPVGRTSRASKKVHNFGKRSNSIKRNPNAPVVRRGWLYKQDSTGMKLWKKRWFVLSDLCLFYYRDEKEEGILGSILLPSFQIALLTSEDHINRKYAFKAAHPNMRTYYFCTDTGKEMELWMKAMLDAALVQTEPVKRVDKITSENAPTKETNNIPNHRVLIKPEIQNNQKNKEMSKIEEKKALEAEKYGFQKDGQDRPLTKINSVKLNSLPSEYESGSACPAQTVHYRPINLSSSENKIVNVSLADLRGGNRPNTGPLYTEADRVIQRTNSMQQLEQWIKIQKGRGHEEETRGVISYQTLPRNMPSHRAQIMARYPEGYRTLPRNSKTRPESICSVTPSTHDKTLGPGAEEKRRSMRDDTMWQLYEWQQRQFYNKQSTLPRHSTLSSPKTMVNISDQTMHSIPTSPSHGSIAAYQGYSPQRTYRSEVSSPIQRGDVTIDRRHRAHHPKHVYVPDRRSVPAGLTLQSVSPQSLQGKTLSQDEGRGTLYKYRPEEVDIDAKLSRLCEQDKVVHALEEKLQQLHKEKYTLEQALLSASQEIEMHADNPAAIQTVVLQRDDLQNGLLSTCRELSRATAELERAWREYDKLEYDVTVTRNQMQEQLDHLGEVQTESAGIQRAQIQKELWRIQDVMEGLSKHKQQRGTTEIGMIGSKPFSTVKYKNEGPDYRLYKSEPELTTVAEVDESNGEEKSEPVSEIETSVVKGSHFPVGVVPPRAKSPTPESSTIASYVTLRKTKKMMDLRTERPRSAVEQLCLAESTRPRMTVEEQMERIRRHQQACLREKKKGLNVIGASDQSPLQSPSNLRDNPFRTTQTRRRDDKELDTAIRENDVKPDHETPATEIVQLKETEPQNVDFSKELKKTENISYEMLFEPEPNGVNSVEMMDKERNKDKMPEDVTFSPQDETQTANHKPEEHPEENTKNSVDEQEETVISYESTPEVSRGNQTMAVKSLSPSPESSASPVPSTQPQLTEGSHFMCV
UniProt Q9GZP4: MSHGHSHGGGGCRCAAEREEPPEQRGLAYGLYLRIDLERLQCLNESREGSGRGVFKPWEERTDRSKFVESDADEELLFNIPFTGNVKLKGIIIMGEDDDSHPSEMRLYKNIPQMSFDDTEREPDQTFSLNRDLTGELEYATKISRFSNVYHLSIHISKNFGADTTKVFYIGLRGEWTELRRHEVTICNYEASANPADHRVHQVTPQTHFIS
UniProt P27986, whole entry, looked up: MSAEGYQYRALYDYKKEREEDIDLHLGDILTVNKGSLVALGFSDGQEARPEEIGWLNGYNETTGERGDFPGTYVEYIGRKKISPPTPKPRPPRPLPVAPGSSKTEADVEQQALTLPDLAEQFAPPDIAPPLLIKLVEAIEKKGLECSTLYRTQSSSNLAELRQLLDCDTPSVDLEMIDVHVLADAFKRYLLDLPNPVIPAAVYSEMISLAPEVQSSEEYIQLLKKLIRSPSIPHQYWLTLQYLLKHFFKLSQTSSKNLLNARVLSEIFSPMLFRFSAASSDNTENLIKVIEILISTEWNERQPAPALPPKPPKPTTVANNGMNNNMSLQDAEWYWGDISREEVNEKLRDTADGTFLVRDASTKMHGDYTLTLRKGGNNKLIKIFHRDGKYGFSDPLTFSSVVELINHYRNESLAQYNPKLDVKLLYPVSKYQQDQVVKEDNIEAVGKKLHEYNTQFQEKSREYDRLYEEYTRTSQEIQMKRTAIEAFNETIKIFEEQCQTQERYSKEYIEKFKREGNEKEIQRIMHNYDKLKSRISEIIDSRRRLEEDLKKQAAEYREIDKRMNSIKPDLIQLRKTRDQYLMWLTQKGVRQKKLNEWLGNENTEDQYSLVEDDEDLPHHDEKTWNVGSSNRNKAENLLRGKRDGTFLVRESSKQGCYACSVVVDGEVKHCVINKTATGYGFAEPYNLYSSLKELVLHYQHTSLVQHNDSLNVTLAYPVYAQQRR
UniProt O15173: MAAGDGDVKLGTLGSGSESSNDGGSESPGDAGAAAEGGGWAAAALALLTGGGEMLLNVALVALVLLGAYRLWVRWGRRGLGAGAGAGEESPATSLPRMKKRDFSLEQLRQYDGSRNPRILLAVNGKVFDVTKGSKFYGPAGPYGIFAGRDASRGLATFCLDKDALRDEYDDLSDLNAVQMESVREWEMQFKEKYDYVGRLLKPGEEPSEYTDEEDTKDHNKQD
UniProt Q9H814, whole entry, looked up: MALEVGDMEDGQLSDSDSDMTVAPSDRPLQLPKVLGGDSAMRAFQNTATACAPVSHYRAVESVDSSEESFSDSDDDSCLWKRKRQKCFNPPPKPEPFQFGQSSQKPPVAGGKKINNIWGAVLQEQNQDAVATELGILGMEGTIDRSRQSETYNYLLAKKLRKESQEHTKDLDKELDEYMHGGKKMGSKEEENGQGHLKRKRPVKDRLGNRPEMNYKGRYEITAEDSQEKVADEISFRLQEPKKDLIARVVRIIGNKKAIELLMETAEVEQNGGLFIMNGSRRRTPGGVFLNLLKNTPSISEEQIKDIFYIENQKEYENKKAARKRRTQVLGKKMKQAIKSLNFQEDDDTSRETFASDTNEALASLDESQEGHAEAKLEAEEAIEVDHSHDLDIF
UniProt Q96S99: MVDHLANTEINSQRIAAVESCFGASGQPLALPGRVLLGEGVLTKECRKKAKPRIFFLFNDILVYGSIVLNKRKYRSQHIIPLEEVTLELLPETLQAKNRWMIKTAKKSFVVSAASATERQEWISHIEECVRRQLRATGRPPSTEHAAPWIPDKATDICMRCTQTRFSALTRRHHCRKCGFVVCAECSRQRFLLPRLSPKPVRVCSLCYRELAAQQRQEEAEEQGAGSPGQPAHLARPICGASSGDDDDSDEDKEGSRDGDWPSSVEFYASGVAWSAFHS
UniProt Q8NEB9, whole entry, looked up: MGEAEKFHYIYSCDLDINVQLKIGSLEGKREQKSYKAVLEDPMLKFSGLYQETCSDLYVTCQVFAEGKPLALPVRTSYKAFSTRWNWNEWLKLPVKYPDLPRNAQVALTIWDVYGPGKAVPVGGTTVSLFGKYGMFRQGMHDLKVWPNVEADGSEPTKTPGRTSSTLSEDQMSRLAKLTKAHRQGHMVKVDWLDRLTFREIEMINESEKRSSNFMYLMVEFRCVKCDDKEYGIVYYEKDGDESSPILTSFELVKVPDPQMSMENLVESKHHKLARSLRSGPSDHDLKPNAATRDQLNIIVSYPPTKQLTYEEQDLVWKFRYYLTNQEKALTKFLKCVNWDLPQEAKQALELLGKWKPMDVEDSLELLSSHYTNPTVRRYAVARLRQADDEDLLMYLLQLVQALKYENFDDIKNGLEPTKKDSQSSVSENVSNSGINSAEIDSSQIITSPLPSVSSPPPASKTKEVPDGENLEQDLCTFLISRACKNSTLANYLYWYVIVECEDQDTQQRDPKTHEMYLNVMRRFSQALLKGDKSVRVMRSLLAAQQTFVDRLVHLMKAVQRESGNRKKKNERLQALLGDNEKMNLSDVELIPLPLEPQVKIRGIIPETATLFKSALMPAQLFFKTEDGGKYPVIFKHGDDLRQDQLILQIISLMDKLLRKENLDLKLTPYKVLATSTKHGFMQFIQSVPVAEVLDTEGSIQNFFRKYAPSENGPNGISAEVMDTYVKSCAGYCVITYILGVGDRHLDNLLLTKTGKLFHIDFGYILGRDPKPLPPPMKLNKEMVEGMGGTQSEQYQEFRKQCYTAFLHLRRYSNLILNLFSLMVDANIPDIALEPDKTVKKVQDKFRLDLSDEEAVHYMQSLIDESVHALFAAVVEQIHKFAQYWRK
UniProt P51178: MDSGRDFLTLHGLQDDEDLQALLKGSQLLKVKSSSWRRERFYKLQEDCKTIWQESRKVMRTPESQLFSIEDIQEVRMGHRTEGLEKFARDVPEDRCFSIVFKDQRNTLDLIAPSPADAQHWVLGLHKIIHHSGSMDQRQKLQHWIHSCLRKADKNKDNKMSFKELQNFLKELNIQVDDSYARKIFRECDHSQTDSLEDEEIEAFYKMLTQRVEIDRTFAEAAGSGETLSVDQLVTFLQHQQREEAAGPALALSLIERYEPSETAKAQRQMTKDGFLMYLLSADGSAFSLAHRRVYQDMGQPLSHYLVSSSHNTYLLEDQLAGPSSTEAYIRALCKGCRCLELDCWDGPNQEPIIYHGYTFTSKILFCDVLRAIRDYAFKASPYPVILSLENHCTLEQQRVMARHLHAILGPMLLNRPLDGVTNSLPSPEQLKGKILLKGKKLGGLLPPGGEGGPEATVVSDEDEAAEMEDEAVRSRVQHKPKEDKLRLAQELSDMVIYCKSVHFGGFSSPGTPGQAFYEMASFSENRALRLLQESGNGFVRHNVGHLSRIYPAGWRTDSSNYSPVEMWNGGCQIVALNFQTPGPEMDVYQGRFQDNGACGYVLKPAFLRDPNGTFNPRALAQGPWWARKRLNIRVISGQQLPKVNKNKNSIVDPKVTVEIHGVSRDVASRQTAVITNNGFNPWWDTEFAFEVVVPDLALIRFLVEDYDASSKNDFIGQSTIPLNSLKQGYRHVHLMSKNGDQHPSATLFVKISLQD
UniProt Q00169: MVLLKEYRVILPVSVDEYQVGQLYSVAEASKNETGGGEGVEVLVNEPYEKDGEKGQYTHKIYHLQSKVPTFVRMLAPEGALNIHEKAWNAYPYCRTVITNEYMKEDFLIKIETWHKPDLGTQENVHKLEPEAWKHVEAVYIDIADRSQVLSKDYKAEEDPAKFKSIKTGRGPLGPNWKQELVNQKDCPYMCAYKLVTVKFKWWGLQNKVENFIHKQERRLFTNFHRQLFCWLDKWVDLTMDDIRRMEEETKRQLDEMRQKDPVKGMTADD
UniProt Q96BK5: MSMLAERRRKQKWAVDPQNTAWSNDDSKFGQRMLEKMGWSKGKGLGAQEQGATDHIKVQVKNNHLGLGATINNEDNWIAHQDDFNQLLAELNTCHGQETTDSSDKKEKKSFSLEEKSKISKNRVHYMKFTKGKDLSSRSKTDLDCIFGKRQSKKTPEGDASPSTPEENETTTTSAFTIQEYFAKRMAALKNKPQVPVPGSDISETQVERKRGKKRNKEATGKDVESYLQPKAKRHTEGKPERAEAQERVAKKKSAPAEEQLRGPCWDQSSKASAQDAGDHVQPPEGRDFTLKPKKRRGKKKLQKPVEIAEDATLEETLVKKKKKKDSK
UniProt Q9UG56: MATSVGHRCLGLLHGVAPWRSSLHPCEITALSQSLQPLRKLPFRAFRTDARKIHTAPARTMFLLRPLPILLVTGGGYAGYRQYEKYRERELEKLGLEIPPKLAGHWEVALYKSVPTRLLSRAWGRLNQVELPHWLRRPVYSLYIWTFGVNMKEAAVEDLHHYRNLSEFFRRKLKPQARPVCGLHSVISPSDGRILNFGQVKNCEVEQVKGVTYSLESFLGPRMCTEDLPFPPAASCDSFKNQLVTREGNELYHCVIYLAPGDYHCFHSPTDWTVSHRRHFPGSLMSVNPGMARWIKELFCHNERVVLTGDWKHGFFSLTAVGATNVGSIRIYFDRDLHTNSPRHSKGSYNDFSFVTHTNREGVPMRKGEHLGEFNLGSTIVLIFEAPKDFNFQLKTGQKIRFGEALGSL
UniProt P48739: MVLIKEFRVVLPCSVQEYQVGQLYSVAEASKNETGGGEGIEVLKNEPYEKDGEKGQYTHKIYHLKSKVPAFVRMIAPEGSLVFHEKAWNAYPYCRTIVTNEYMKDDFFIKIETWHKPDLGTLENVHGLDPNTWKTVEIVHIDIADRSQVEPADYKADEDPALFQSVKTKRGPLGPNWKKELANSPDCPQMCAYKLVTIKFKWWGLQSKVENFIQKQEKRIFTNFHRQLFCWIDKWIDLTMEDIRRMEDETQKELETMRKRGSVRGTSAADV
UniProt Q9NRX4: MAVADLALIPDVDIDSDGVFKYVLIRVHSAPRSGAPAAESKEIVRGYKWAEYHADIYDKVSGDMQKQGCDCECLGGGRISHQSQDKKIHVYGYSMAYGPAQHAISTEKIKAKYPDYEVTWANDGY
UniProt Q13526, whole entry, looked up: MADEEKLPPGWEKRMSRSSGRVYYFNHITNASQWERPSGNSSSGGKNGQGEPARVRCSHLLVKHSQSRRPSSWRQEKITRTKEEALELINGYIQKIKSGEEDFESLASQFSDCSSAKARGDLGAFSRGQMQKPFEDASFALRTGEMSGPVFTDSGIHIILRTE
UniProt P48426: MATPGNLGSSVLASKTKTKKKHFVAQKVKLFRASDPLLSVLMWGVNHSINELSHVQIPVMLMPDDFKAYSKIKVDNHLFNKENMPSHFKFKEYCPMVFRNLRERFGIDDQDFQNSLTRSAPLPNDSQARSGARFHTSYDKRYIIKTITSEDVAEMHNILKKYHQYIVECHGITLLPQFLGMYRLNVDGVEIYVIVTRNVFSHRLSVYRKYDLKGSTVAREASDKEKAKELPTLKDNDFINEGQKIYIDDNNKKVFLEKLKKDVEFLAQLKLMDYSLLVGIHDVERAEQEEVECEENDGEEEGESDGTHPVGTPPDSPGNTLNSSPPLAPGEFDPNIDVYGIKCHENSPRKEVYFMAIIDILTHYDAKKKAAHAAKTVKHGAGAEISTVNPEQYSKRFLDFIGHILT

[1] = compound: C/C(=N\NC(=O)C1=CC(=CC=C1)S(=O)(=O)N2CCOCC2)/C3=C(C=CC(=C3)Cl)O
Procedure, shortened: as §1

[2] = compound: C1=CC(=CC=C1C2=NC3=C(N2)C=C(C=C3)C(=O)N)OC4=CC=C(C=C4)Cl
Procedure, shortened: as §1

[3] = compound: C1=CC2=C(C=CC(=C2)/C=C\3/C(=O)NC(=NCC4=CC=CS4)S3)N=C1
Procedure, shortened: as §1

[4] = compound: C1=CC2=NC=CN=C2C=C1/C=C/3\C(=O)NC(=O)S3
Procedure, shortened: as §1

[5] = compound: C1=CC=C(C=C1)C2=NC(=C(N2)C3=CC=NC=C3)C4=CC(=C(C=C4)Cl)O
Procedure, shortened: as §1

[6] = compound: C1=CC=C2C(=C1)C3=NNC4=CC=CC(=C43)C2=O
Procedure, shortened: as §1

[7] = compound: C1CCN(C1)C(=O)NC2=CC=CC(=C2)NC3=NC=C(C(=N3)NCCC4=CN=CN4)Br
Procedure, shortened: as §1

[8] = compound: C1CN(CCC1(CC2=CC=C(C=C2)Cl)N)C3=NC=NC4=C3C=CN4
Procedure, shortened: as §1

IRAK-1-4 Inhibitor I = compound: C1COCCN1CCN2C3=CC=CC=C3N=C2NC(=O)C4=CC(=CC=C4)[N+](=O)[O-] [IRAK-1-4 Inhibitor I]
Procedure, shortened: as §1

ibrutinib = compound: C=CC(=O)N1CCC[C@@H](n2nc(-c3ccc(Oc4ccccc4)cc3)c3c(N)ncnc32)C1 [ibrutinib]
Procedure, shortened: as §1

[9] = compound: CC(=O)c1cnc2ccc(-c3cc(Cl)c(O)c(Cl)c3)nc2c1N[C@H]1CC[C@H](CN(C)C)CC1
Procedure, shortened: as §1

ralimetinib = compound: CC(C)(C)Cn1c(N)nc2ccc(-c3[nH]c(C(C)(C)C)nc3-c3ccc(F)cc3)nc21 [ralimetinib]
Procedure, shortened: as §1

[10] = compound: CC(C)(O)CC(=O)NCCn1ccc2ncnc(Nc3ccc(Oc4cccc(C(F)(F)F)c4)c(Cl)c3)c21
Procedure, shortened: as §1

[11] = compound: CC(C)C1=C2N=C(C=C(N2N=C1)NCC3=CC=CC=C3)NCCCCCCN
Procedure, shortened: as §1

[12] = compound: CC1=C(C(CC(=O)N1)C2=CC=C(C=C2)C(F)(F)F)C(=O)NC3=C(C=C4C(=C3)C=NN4)F
Procedure, shortened: as §1

[13] = compound: CC1=C(C2=C(C=C1)C(=O)C3=CC=CC=C3N2CCCN)C
Procedure, shortened: as §1

[14] = compound: CC1=C(C=C(C=C1)NC(=O)C2=CC(=CC=C2)C(C)(C)C#N)NC3=CC4=C(C=C3)N=CN(C4=O)C
Procedure, shortened: as §1

[15] = compound: CC1=C(C=C(C=C1)NC(=O)C2=CC(=CC=C2)N(C)C)NC(=O)C3=CC=C(C=C3)O
Procedure, shortened: as §1

[16] = compound: CC1=CC=C(C=C1)SC2=C3C=C(SC3=CN=C2)C(=O)N
Procedure, shortened: as §1

Measured: log2 fold change

PLEKHA5 isoform 6 (UniProt Q9HAU0)
inactive: erlotinib -0.007 | [1] -0.021 | [2] 0.016 | [3] -0.058 | [4] 0.087 | [5] -0.021 | [6] -0.007 | [7] -0.002 | [8] -0.04 | IRAK-1-4 Inhibitor I 0.019 | ibrutinib 0.075 | [9] 0.003 | ralimetinib -0.004 | [10] -0.001 | [11] 0.069 | [12] -0.013 | [13] -0.033 | [14] 0.028 | [15] 0.022 | [16] -0.036

PITHD1 (UniProt Q9GZP4)
inactive: erlotinib 0.005 | [1] 0.005 | [2] 0.006 | [3] -0.004 | [4] 0.003 | [5] -0.005 | [6] -0.08 | [7] 0.012 | [8] -0.002 | IRAK-1-4 Inhibitor I 0.031 | ibrutinib -0.002 | [9] 0.018 | ralimetinib 0.045 | [10] -0.023 | [11] -0.037 | [12] -0.017 | [13] -0.02 | [14] 0.018 | [15] -0.011 | [16] -0.03

PIK3R1 (UniProt P27986)
active: [4] 0.348
inactive: erlotinib -0.027 | [1] -0.4 | [2] 0.008 | [3] 0.069 | [5] 0.076 | [6] 0.089 | [7] -0.015 | [8] 0 | IRAK-1-4 Inhibitor I 0.1 | ibrutinib -0.018 | [9] 0.302 | ralimetinib -0.003 | [10] -0.06 | [11] -0.008 | [12] -0.006 | [13] 0.027 | [14] -0.013 | [15] -0.006 | [16] 0.019

PGRMC2 isoform 2 (UniProt O15173)
inactive: erlotinib -0.003 | [1] -0.319 | [2] 0.038 | [3] 0.004 | [4] 0.011 | [5] -0.026 | [6] 0.014 | [7] 0.022 | [8] 0.044 | IRAK-1-4 Inhibitor I -0.003 | ibrutinib -0.005 | [9] 0.029 | ralimetinib -0.013 | [10] 0.047 | [11] 0.003 | [12] -0.009 | [13] -0.016 | [14] -0.001 | [15] -0.009 | [16] -0.02

PIGK (UniProt Q92643)
inactive: erlotinib 0.035 | [1] 0.015 | [2] -0.034 | [3] 0.001 | [4] -0.012 | [5] -0.025 | [6] -0.126 | [7] -0.006 | [8] 0.097 | IRAK-1-4 Inhibitor I 0.027 | ibrutinib 0.054 | [9] 0.025 | ralimetinib 0.014 | [10] -0.06 | [11] -0.059 | [12] 0.12 | [13] -0.035 | [14] 0.011 | [15] 0.077 | [16] -0.001

PHAX (UniProt Q9H814)
inactive: erlotinib -0.002 | [1] 0.009 | [2] 0.03 | [3] 0.025 | [4] -0.015 | [5] 0.029 | [6] -0.014 | [7] -0.028 | [8] 0.003 | IRAK-1-4 Inhibitor I 0.01 | ibrutinib 0.019 | [9] -0.008 | ralimetinib -0.04 | [10] -0.031 | [11] -0.009 | [12] -0.004 | [13] 0.003 | [14] -0.014 | [15] -0.035 | [16] -0.026

PLEKHF1 (UniProt Q96S99)
inactive: erlotinib 0.027 | [1] 0.032 | [2] -0.067 | [3] 0.006 | [4] 0.05 | [5] 0.017 | [6] -0.019 | [7] -0.032 | [8] 0.029 | IRAK-1-4 Inhibitor I -0.024 | ibrutinib -0.004 | [9] 0.015 | ralimetinib 0.053 | [10] -0.042 | [11] 0.002 | [12] -0.069 | [13] -0.025 | [14] -0.002 | [15] -0.017 | [16] 0.015

PIK3C3 (UniProt Q8NEB9)
inactive: erlotinib 0.014 | [1] -0.059 | [2] 0.004 | [3] 0.017 | [4] 0.025 | [5] 0.009 | [6] 0.053 | [7] -0.084 | [8] 0.015 | IRAK-1-4 Inhibitor I 0.081 | ibrutinib -0.056 | [9] -0.021 | ralimetinib -0.023 | [10] -0.096 | [11] 0.015 | [12] -0.032 | [13] -0.015 | [14] -0.002 | [15] -0.011 | [16] -0.056

PLCD1 isoform 2 (UniProt P51178)
inactive: erlotinib -0.026 | [1] 0.083 | [2] -0.007 | [3] 0.006 | [4] -0.015 | [5] 0.006 | [6] -0.037 | [7] -0.07 | [8] -0.04 | IRAK-1-4 Inhibitor I 0.033 | ibrutinib -0.032 | [9] -0.007 | ralimetinib 0.009 | [10] -0.017 | [11] -0.017 | [12] -0.008 | [13] 0.026 | [14] 0.102 | [15] 0.014 | [16] 0.026

PITPNA (UniProt Q00169)
inactive: erlotinib 0.004 | [1] 0.008 | [2] -0.04 | [3] -0.032 | [4] -0.005 | [5] 0.009 | [6] 0.019 | [7] 0.035 | [8] -0.009 | IRAK-1-4 Inhibitor I -0.025 | ibrutinib -0.003 | [9] -0.008 | ralimetinib 0.012 | [10] -0.004 | [11] -0.013 | [12] 0.019 | [13] -0.014 | [14] 0.004 | [15] -0.001 | [16] 0.005

PINX1 (UniProt Q96BK5)
inactive: erlotinib 0 | [1] -0.158 | [2] 0.05 | [3] 0.305 | [4] -0.054 | [5] 0.015 | [6] -0.18 | [7] -0.136 | [8] -0.049 | IRAK-1-4 Inhibitor I -0.017 | ibrutinib 0.006 | [9] -0.003 | ralimetinib -0.07 | [10] 0.017 | [11] 0.041 | [12] 0.064 | [13] -0.183 | [14] 0.066 | [15] -0.028 | [16] 0.05

PISD (UniProt Q9UG56)
inactive: erlotinib -0.046 | [1] 0.044 | [2] -0.075 | [3] -0.006 | [4] -0.094 | [5] -0.017 | [6] 0.052 | [7] 0.034 | [8] 0.003 | IRAK-1-4 Inhibitor I -0.013 | ibrutinib -0.018 | [9] -0.034 | ralimetinib -0.01 | [10] -0.107 | [11] -0.004 | [12] 0.014 | [13] 0.006 | [14] 0.098 | [15] 0.112 | [16] 0.033

PITPNB isoform 3 (UniProt P48739)
inactive: erlotinib -0.01 | [1] 0.054 | [2] -0.008 | [3] -0.013 | [4] -0.002 | [5] -0.026 | [6] 0.02 | [7] -0.003 | [8] 0.004 | IRAK-1-4 Inhibitor I -0.002 | ibrutinib -0.004 | [9] 0 | ralimetinib 0.023 | [10] -0.013 | [11] -0.008 | [12] -0.004 | [13] 0.058 | [14] 0.001 | [15] 0.001 | [16] -0.003

2 successive records already listed, quoted:
PIK3R1 (UniProt P27986)
active: [4] 0.348
inactive: erlotinib -0.027 | [1] -0.4 | [2] 0.008 | [3] 0.069 | [5] 0.076 | [6] 0.089 | [7] -0.015 | [8] 0 | IRAK-1-4 Inhibitor I 0.1 | ibrutinib -0.018 | [9] 0.302 | ralimetinib -0.003 | [10] -0.06 | [11] -0.008 | [12] -0.006 | [13] 0.027 | [14] -0.013 | [15] -0.006 | [16] 0.019

PGRMC2 isoform 2 (UniProt O15173)
inactive: erlotinib -0.003 | [1] -0.319 | [2] 0.038 | [3] 0.004 | [4] 0.011 | [5] -0.026 | [6] 0.014 | [7] 0.022 | [8] 0.044 | IRAK-1-4 Inhibitor I -0.003 | ibrutinib -0.005 | [9] 0.029 | ralimetinib -0.013 | [10] 0.047 | [11] 0.003 | [12] -0.009 | [13] -0.016 | [14] -0.001 | [15] -0.009 | [16] -0.02

Continuation.

PHPT1 (UniProt Q9NRX4)
inactive: erlotinib 0.019 | [1] 0.095 | [2] -0.062 | [3] -0.02 | [4] -0.014 | [5] 0.001 | [6] 0.036 | [7] 0.04 | [8] 0.032 | IRAK-1-4 Inhibitor I -0.047 | ibrutinib -0.011 | [9] 0.032 | ralimetinib -0.037 | [10] 0.039 | [11] -0.038 | [12] -0.067 | [13] 0.005 | [14] -0.024 | [15] -0.029 | [16] 0.032

PIN1 (UniProt Q13526)
inactive: erlotinib -0.014 | [1] 0.034 | [2] 0.043 | [3] -0.025 | [4] 0.017 | [5] 0.051 | [6] -0.037 | [7] 0.013 | [8] -0.015 | IRAK-1-4 Inhibitor I 0.019 | ibrutinib -0.013 | [9] 0.004 | ralimetinib 0.013 | [10] -0.033 | [11] 0.014 | [12] -0.009 | [13] 0.025 | [14] 0 | [15] 0.003 | [16] -0.065

PIP4K2A (UniProt P48426)
inactive: erlotinib -0.04 | [2] 0.032 | [3] 0.001 | [4] 0.225 | [5] 0.135 | [6] 0.105 | [7] 0.103 | [8] -0.006 | IRAK-1-4 Inhibitor I -0.007 | ibrutinib -0.052 | [9] 0.086 | ralimetinib 0.032 | [10] -0.053 | [11] -0.043 | [12] -0.017 | [13] -0.019 | [14] -0.002 | [15] -0.028 | [16] -0.026
active: [1] -0.239

Source: the supplement of paper PMC10849652
